Values from PubChem BioAssay AID686943 (Drosophila RNAi Screening Center, 2013)
The screen tested about 23,000 reagents; below is a random part of those that have a named target and a result. 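Extra replicates exist only for a retested subset of genes; insulin dose and duration not given; both raised and lowered dpERK matter.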 The numbers tell different reagents against one gene apart. Names joined by + are all predicted targets of the reagent. Not given: the amount of reagent, the time to read-out.

- Assay: 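Knockdowns that increase or decrease active ERK after insulin receptor stimulation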 (primary screen)
- System: Drosophila S2R+ haemocyte-like cells expressing YFP-tagged ERK (Rolled)
- Knock-down reagent: long dsRNA against Drosophila genes
- Treatment: insulin stimulation versus unstimulated cells; dose and duration not given
- Read-out: 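Per-plate z-scores of phospho-ERK immunostaining normalised to YFP-tagged ERK, measured with and without insulin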
- Reading the numbers: replicate 1, z-score of dpERK with insulin and replicate 2, z-score of dpERK with insulin: higher = more active ERK per ERK-YFP after insulin; replicate 1, z-score of dpERK under basal conditions: higher = more basal active ERK per ERK-YFP; replicate 1, z-score of ERK-YFP with insulin: higher = more YFP-tagged ERK signal

target | reagent no. | replicate 1, z-score of dpERK with insulin | replicate 2, z-score of dpERK with insulin | replicate 1, z-score of dpERK under basal conditions | replicate 1, z-score of ERK-YFP with insulin
CG34210 | 1 | 0.43 | 0 | 0.81 | 0.18
CG43124 | 1 | -0.42 | 0.25 | -0.58 | 0.08
mfr | 1 | 0.11 | -0.15 | -0.82 | 0.51
CG11828 | 1 | 0.6 | 0.02 | 0.01 | 0.47
CG11828 | 2 | 0.22 | 0.34 | -0.47 | -0.1
CG14630 | 1 | 0.82 | -0.55 | 4.14 | 0.28
CG14630 | 2 | -0.47 | 0.08 | -0.05 | 0.26
spz5 | 1 | 1.27 | 0.2 | 0.73 | -1
CG30008 | 1 | 0.46 | 1.27 | -1 | -0.32
CG32706 + CG6999 | 1 | -0.21 | -0.55 | -0.73 | -0.03
hlk | 1 | 1 | 0.54 | 0.65 | -1.34
hlk | 2 | 0.04 | -1.98 | -0.11 | 0.31
Ir60d | 1 | 0.58 | -0.41 | 1.17 | -0.71
Uba5 | 1 | 0.38 | 0.67 | 1.08 | 0.59
Naam | 1 | 0.47 | 0 | 0.31 | -0.27
CG14629 | 1 | -1.59 | -0.92 | -1.27 | -0.93
Gr98d | 1 | 0.54 | 0.46 | -0.02 | -0.24
dx | 1 | -0.85 | 0.07 | 0.19 | 0.69
Mical | 1 | -0.45 | -0.55 | -0.1 | 0.93
Mical | 2 | 0.85 | 0.83 | – | 0.06
Mical | 3 | 1.62 | 1.73 | 2.98 | -0.35
Mical | 4 | 0.46 | 0.12 | 1.61 | 0.13
lncRNA:CR42735 (retired record) | 1 | -0.24 | -0.59 | -0.99 | 0.18
Nipped-B | 1 | -0.07 | 0.21 | -2.2 | 1.43
Rbbp5 + CG6434 (retired record) | 1 | 0.35 | 0.41 | -0.36 | 0.49
rut | 1 | -4.42 | -2.03 | -2.66 | -2.66
Vhl | 1 | -1.6 | -0.49 | 0.95 | 0.85
Cyp6a14 | 1 | 0.25 | 0.32 | 0.03 | -0.54
Ddc | 1 | 0.63 | 0.21 | 0.42 | 0
lush | 1 | -1.18 | 0.51 | -0.49 | 0.78
CG42795 | 1 | -0.81 | -0.35 | -0.2 | 0.69
CG42795 | 2 | 0 | 0.52 | 0.05 | -0.7
Sp212 | 1 | 0.28 | 0.47 | -0.81 | 0.28
CG12923 | 1 | 0.32 | 0.81 | 0.4 | -0.19
CG4390 | 1 | 0.62 | -0.07 | -0.73 | 0.56
CG10481 | 1 | 0.49 | 0.81 | 1.27 | 0.65
CG34428 | 1 | -0.64 | 0.01 | 0.67 | 0.39
CG15912 | 1 | -0.12 | -0.45 | -0.25 | 0.2
AttD | 1 | 0.75 | -0.41 | 0.31 | 0.46
CG42369 | 1 | -0.19 | -0.15 | 1.73 | -0.31
dos | 1 | -5.34 | -4.8 | -4.19 | -2.19
dos | 2 | 0.34 | -0.19 | 0.68 | -0.38
CG16837 | 1 | -0.28 | 0.26 | -0.01 | 0.13
CG18493 | 1 | 5.95 | 0.28 | 0.01 | -0.55
l(3)mbt | 1 | 0.6 | -0.65 | 0.13 | 0.29
nkt | 1 | 0.25 | 0.49 | -0.11 | 0.08
Gk1 | 1 | -0.33 | 0.22 | 0.68 | 0.51
Gk1 | 2 | -1.26 | -1.49 | -0.24 | 0.18
CG18563 | 1 | -0.47 | 0.07 | -0.54 | -0.06
Acsf2 | 1 | -0.49 | 0.09 | -1.89 | 0.38
CG10026 | 1 | 2.09 | -0.04 | 0.09 | -0.42
Hr78 | 1 | -0.3 | -0.19 | 1.02 | 0.14
stan | 1 | -3.24 | -4.47 | -0.6 | -4.67
stan | 2 | -0.05 | -0.23 | -0.3 | -0.2
CR42548 | 1 | 0.48 | 0.36 | -0.52 | -0.33
CG9067 | 1 | 1.42 | -0.69 | -0.12 | -0.46
Eglp4 | 1 | -0.23 | -0.15 | -0.02 | 0

Targets listed so far whose gene name begins with A or a:
target | reagent no. | replicate 1, z-score of dpERK with insulin | replicate 2, z-score of dpERK with insulin | replicate 1, z-score of dpERK under basal conditions | replicate 1, z-score of ERK-YFP with insulin
AttD | 1 | 0.75 | -0.41 | 0.31 | 0.46
Acsf2 | 1 | -0.49 | 0.09 | -1.89 | 0.38
